Each structure is given as a SMILES string. Out of some 1,600 compounds screened, about 20 (1%) were called active.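 The calls were made as follows: active = ratio of uncleaved NAD to its breakdown product ADP-ribose above 4, meaning the enzyme was inhibited; inactive = the rest.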 This is one part of the list.

By UniProt entry, the sequences of proteins in these tests, tags left out. Where a name states a change or a piece, a line headed by the entry shows the natural chain unless it says otherwise.
UniProt Q6SZW1: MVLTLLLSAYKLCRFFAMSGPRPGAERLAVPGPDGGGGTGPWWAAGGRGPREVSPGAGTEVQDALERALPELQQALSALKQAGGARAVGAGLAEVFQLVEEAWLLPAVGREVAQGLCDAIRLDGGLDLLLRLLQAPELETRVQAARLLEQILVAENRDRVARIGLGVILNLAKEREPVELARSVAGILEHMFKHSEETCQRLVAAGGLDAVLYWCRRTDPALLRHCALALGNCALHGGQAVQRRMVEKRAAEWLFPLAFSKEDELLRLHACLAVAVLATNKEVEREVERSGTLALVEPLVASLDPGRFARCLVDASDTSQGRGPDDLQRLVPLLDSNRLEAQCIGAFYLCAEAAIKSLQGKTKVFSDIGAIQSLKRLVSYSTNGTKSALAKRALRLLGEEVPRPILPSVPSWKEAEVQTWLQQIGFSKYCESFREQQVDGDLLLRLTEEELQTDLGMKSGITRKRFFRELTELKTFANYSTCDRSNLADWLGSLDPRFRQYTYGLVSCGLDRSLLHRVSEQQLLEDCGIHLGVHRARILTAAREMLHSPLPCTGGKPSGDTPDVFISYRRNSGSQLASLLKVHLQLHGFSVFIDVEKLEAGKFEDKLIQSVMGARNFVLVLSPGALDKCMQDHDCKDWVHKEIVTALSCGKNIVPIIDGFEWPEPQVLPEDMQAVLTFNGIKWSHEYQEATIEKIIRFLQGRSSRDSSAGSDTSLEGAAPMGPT

This test concerns the target NAD(+) hydrolase SARM1 (Homo sapiens) (UniProt Q6SZW1). Description: inhibition of SAM-TIR NAD hydrolysis to ADPR – cell lysate, HPLC readout, primary screen (AID 1508615).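 Also: substrate NAD at 5 µM with 60 min at 37 °C.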 The settings on record: HEK293T SAM-TIR lysate, NAD/ADPR ratio by HPLC; at 5 µM; stronger effect = higher value.
For the compound `O=C(NC(=S)Nc1cccc(O)c1)c1ccco1`, the NAD/ADPR ratio is inactive: 3.
Next, `COc1ccc(NC(=O)CC(C)=O)c(OC)c1`: inactive: 3; `c1cc(-n2nnc3cnccc32)ccn1`: inactive: 3; `O=C(Nc1ccc(C2=NCCN2)cc1)c1ccc(Cl)c(C(=O)Nc2ccc(C3=NCCN3)cc2)c1`: inactive: 3.
For the compound `Cc1c(COC(=O)NC(C)C)c(COC(=O)NC(C)C)c2n1CS(=O)(=O)C2`, the NAD/ADPR ratio was inactive: 3.
Regarding `CCCCOP(=O)(OCCCC)C1(C)CC(=O)CC(C)(C)C1` (centres undefined), the NAD/ADPR ratio was inactive: 3.
With `CC(=O)Nc1c(C)cc(OCC(=O)O)cc1C`, the NAD/ADPR ratio was inactive: 3.
`O=c1cc2c(=O)oc3cc(O)c(O)oc3c2c(O)c1O`: the NAD/ADPR ratio is inactive: 3.
Next, `NC(=S)Nc1cccc(Cl)c1`: inactive: 3; `O=C(Nc1ccc(Cl)c(Cl)c1)Nc1ccccc1O`: inactive: 3; `O=C(O)C1CCC(=O)N1C(=O)OCc1ccccc1` (centres undefined): inactive: 3.
For the compound `O=[N+]([O-])c1ccc(NN=C(c2ccccc2)c2ccccc2)nc1`, the NAD/ADPR ratio was inactive: 2.8.
As for `NC(N)=N/N=C/c1c(Cl)cccc1Cl`, the NAD/ADPR ratio is inactive: 3.
In the case of `N#C/C(=C\c1ccc(C#N)cc1)C(=O)c1ccccc1`, the NAD/ADPR ratio is inactive: 3.
As for `CC(NC(=O)c1ccc(Cl)c(Cl)c1)c1ccc(-c2ccccc2)cc1` (centres undefined), the NAD/ADPR ratio was inactive: 3.
In the case of `CC1=CC(=O)C(C(C)=Nc2ccccc2Cl)C(=O)O1` (centres undefined) it was inactive: 3.
Consider `Cc1ccc(C)c(N2CCN(c3ccncc3N)CC2)c1`, for which the NAD/ADPR ratio is inactive: 3.
In the case of `OCC1(CO)COC2(CCCC2)N1`, the NAD/ADPR ratio was inactive: 3.
For `O=C1CCC(NC(=O)c2ccccc2)C(=O)N1` (centres undefined), the NAD/ADPR ratio was inactive: 3.
Next, `Nc1cc(=O)[nH]c2ncnn12`: inactive: 3.
Take `N#C/C(=C\c1c[nH]c2ccccc12)C(N)=O`: the NAD/ADPR ratio is inactive: 3.
Take `NS(=O)(=O)c1ccc(Cl)cc1[N+](=O)[O-]`: the NAD/ADPR ratio is inactive: 3.
In the case of `CCn1c2ccccc2c2cc(NC(=O)Nc3ccc([N+](=O)[O-])cc3C)ccc21` it was inactive: 3; in that of `O=C(O)/C=C/C(=O)Nc1nccs1`, inactive: 3.
Next, `Nc1ncnc(N2CCOCC2)n1`: inactive: 3; `O=C1COc2c1ccc(O)c2O`: inactive: 3; `CSc1nc(N)c(C(=O)Nc2ccc([N+](=O)[O-])cc2)s1`: inactive: 3.
Next, `O=C(Nc1cccc2ccccc12)c1ccccc1`: inactive: 3.
Consider `CN(C)c1nc(=Nc2cccc(Cl)c2)ss1`, for which the NAD/ADPR ratio is active: 11.3.
Regarding `CN(C)c1ncnc2c1ncn2-c1ccccc1`, the NAD/ADPR ratio is inactive: 3.
As to `Nc1ncncc1-c1ccc2ccccc2c1`, the NAD/ADPR ratio is inactive: 3.
In the case of `CCOC(=O)/C(C#N)=C1\SS/C(=C(/C#N)C(=O)OCC)S1` it was active: 7.9; in that of `Nc1ccc(NC(=O)Nc2ccc(N)cc2)cc1`, inactive: 3; in that of `Nc1ccc(NC(=S)Nc2ccccc2)cc1`, inactive: 3.

Source of the values: PubChem BioAssay AID1508615 (Milbrandt Lab, Department of Genetics, Washington …, 2020).
